Data reported in paper PMC10644524.
These are yes or no findings as the source states them, for the method shown. Binding seen in cells or lysates may run through a third protein. Some binding calls cover weakened binding; strength is not graded here.

Protein sequences, listed by entry. Tags and fused reporters are not part of them. Residues count along the entry.
UniProt O75581, residues 20-1613: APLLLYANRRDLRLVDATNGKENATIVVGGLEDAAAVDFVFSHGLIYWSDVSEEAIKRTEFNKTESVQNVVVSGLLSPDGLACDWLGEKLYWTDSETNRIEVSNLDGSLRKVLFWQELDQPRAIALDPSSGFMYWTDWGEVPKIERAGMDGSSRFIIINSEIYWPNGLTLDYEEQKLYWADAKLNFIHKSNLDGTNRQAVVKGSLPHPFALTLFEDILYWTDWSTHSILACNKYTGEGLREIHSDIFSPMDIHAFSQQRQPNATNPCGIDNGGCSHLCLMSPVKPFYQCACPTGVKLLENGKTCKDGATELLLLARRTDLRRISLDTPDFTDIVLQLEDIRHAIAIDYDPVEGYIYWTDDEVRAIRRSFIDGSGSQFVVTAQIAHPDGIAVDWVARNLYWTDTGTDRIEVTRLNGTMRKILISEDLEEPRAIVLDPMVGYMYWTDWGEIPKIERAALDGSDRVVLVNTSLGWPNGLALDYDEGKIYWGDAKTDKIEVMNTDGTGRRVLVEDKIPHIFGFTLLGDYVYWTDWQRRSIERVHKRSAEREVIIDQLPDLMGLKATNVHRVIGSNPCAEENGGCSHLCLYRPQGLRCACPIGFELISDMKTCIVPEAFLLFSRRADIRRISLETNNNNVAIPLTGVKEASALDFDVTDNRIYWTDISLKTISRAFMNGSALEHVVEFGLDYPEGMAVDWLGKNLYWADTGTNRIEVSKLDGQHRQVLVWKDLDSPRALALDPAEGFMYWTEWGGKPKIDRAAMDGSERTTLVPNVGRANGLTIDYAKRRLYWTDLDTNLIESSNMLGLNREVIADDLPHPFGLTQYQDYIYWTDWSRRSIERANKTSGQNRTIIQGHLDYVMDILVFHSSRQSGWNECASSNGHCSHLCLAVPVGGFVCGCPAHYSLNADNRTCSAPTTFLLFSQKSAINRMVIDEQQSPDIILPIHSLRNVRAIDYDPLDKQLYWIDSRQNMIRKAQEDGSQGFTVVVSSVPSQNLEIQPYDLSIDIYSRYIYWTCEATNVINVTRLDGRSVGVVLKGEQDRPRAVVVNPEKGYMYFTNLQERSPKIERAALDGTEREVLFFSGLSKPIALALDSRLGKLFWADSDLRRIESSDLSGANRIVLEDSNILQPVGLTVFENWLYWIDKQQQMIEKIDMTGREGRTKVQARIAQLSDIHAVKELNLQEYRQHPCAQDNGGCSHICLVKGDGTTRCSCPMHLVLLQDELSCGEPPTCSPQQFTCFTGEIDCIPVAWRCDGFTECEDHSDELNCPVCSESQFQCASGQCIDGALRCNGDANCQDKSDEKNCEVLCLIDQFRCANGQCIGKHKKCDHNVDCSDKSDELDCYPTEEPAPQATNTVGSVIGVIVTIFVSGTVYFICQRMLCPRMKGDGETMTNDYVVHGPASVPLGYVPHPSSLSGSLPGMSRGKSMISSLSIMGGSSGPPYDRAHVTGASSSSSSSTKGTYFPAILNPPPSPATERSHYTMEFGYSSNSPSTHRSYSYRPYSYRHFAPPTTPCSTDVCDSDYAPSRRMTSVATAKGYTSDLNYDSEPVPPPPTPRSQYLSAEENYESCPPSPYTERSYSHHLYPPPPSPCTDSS
UniProt P18065, residues 36-325: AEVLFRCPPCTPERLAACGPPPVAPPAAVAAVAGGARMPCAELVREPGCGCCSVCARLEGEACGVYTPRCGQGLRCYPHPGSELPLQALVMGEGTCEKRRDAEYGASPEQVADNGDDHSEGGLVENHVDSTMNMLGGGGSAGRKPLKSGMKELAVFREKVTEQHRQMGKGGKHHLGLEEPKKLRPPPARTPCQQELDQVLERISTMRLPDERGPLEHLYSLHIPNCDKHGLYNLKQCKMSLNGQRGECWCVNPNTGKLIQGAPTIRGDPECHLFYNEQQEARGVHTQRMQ

Target: low-density lipoprotein receptor-related protein 6 (LRP6) (human (endogenous in HepG2)) (UniProt O75581)
Assay: co-IP; LRP6 antibodies (or corresponding IgG) on protein A/G plus-agarose; HepG2 whole-cell lysates (25 mmol/L HEPES, 150 mmol/L NaCl, 5 mmol/L EDTA, 1% Triton X-100, 10% glycerin), precleared with normal mouse IgG, overnight at 4 °C; cells transfected with IGFBP2 plasmid or the vector control; blot with LRP6 or IGFBP2 antibodies

| Substance | binding |
| --- | --- |
| insulin-like growth factor-binding protein 2 (IGFBP2), endogenous in HepG2 control cells (from UniProt P18065 36-325) | binds |
| insulin-like growth factor-binding protein 2 (IGFBP2), overexpressed from pcDNA3.1 in HepG2 cells (from UniProt P18065 36-325) | binds |
